{"sequences": {"note": "The chains behind the UniProt entries cited, without tags or fusion partners. Where a name states a change or a piece, a line headed by the entry shows the natural chain unless it says otherwise.", "UniProt Q13263": "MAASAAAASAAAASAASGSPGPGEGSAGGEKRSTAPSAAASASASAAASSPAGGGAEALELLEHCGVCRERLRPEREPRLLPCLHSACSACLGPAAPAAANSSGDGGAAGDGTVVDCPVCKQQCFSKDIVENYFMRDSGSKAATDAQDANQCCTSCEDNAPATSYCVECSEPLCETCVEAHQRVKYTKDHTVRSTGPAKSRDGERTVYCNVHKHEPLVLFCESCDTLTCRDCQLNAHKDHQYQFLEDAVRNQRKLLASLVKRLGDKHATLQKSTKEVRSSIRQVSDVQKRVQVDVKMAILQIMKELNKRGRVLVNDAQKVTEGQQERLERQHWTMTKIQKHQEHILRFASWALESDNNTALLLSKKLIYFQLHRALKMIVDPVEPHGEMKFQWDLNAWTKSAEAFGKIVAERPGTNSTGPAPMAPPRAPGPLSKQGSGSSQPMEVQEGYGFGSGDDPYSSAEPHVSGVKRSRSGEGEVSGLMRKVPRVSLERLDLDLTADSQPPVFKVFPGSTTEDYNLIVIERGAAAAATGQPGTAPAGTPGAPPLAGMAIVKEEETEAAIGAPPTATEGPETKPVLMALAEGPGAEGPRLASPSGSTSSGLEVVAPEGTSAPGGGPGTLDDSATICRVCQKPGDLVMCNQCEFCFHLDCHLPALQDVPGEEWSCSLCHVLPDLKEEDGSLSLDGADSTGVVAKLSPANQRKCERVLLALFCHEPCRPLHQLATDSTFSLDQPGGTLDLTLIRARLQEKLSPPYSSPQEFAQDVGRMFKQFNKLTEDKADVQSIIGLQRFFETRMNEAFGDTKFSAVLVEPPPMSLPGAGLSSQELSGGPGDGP", "UniProt Q9HAU4": "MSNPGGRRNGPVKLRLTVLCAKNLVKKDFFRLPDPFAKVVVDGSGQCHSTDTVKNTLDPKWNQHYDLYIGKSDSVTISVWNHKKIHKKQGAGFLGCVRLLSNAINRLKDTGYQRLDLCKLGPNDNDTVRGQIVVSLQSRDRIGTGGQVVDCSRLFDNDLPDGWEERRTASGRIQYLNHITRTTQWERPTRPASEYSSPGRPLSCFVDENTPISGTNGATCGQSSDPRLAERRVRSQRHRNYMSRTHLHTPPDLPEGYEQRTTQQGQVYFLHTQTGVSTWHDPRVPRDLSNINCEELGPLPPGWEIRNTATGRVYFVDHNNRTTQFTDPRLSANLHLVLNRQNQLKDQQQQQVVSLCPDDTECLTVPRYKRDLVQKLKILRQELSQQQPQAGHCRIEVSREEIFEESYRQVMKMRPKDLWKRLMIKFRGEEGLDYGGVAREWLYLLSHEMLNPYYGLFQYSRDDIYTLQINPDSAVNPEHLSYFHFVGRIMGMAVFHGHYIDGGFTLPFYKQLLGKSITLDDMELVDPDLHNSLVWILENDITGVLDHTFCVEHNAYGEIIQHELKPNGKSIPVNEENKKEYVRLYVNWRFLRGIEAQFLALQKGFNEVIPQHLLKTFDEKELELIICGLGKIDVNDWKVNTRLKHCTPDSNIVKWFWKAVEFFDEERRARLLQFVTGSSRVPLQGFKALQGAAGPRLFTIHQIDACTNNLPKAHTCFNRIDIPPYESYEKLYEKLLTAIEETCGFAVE"}, "source": "paper PMC8997158", "key": {"[1]": {"target": "N-terminal FLAG-tagged KAP1 (FLAG-KAP1), expressed in HEK-293T cells (UniProt Q13263)", "assay": "co-IP; reciprocal co-IP from HEK-293T cells co-expressing FLAG-KAP1 and MYC-SMURF2 (WT or CG); anti-FLAG M2 affinity gel or anti-MYC antibody; 1% NP40 buffer (10 mM Tris pH 7.5, 150 mM NaCl, 5 mM EDTA, 10% glycerol), overnight at 4 °C"}, "[2]": {"target": "MYC-SMURF2 wild-type (SMURF2WT), expressed in HEK-293T cells (UniProt Q9HAU4)", "assay": "co-IP; reciprocal co-IP from HEK-293T cells co-expressing FLAG-KAP1 and MYC-SMURF2 (WT or CG); anti-FLAG M2 affinity gel or anti-MYC antibody; 1% NP40 buffer (10 mM Tris pH 7.5, 150 mM NaCl, 5 mM EDTA, 10% glycerol), overnight at 4 °C"}, "[3]": {"target": "MYC-SMURF2CG, catalytically-inactive SMURF2 (C716G), expressed in HEK-293T cells (UniProt Q9HAU4)", "assay": "co-IP; reciprocal co-IP from HEK-293T cells co-expressing FLAG-KAP1 and MYC-SMURF2 (WT or CG); anti-FLAG M2 affinity gel or anti-MYC antibody; 1% NP40 buffer (10 mM Tris pH 7.5, 150 mM NaCl, 5 mM EDTA, 10% glycerol), overnight at 4 °C"}, "[4]": {"target": "endogenous SMURF2 of HEK-293T cells (human (endogenous in HEK-293T)) (UniProt Q9HAU4)", "assay": "co-IP; endogenous co-IP from HEK-293T cells; IP with anti-SMURF2 antibody, isotype IgG as control; 0.5% NP40 buffer (10 mM Tris pH 7.5, 150 mM NaCl, 5 mM EDTA, 10% glycerol), overnight at 4 °C"}, "[5]": {"target": "KAP1 in the co-immunoprecipitation from U2OS cells (UniProt Q13263)", "assay": "co-IP; co-IP from U2OS cells (Figure S1); who was precipitated is not given"}, "[6]": {"target": "GST-SMURF2 (wild-type), purified from bacteria (UniProt Q9HAU4)", "assay": "pull-down; in vitro GST pull-down: FLAG-KAP1 co-incubated with GST-SMURF2 in 50 mM Tris-HCl pH 7.5, 120 mM NaCl, 2 mM EDTA, 0.1% Nonidet P40 substitute, 37 °C, 15 min; GST-SMURF2 pulled down on Glutathione Sepharose 4B; blots with anti-SMURF2 and anti-KAP1; both purified"}, "[7]": {"target": "endogenous KAP1 of U2OS cells (human (endogenous in U2OS)) (UniProt Q13263)", "assay": "proximity ligation; Duolink in situ PLA in U2OS cells transiently transfected with MYC-SMURF2; anti-MYC and anti-KAP1 antibodies; MYC-Empty vector as control"}}, "note": "These are yes or no findings as the source states them, for the method shown. For some assays here: Binding seen in cells or lysates may run through a third protein. Some entries that bind do so weakly or less than the wild type."}
{"substance": "MYC-SMURF2 wild-type (SMURF2WT), expressed in HEK-293T cells (from UniProt Q9HAU4 1-748) (enzyme)", "values": [{"measurement": "binding", "setting": "[1]", "result": "binds"}]}
{"substance": "N-terminal FLAG-tagged KAP1 (FLAG-KAP1), expressed in HEK-293T cells (from UniProt Q13263 1-835)", "values": [{"measurement": "binding", "setting": "[2]", "result": "binds"}, {"measurement": "binding", "setting": "[3]", "result": "binds"}]}
{"substance": "MYC-SMURF2CG, catalytically-inactive SMURF2 (C716G), expressed in HEK-293T cells (from UniProt Q9HAU4 1-748) (enzyme)", "values": [{"measurement": "binding", "setting": "[1]", "result": "binds"}]}
{"substance": "endogenous KAP1 of HEK-293T cells (from UniProt Q13263 1-835)", "values": [{"measurement": "binding", "setting": "[4]", "result": "binds"}]}
{"substance": "SMURF2 in the co-immunoprecipitation from U2OS cells (from UniProt Q9HAU4 1-748) (enzyme)", "values": [{"measurement": "binding", "setting": "[5]", "result": "binds"}]}
{"substance": "FLAG-KAP1 produced in the TNT SP6 high-yield wheat germ expression system (from UniProt Q13263 1-835)", "values": [{"measurement": "binding", "setting": "[6]", "result": "binds"}]}
{"substance": "MYC-SMURF2, expressed in U2OS cells (from UniProt Q9HAU4 1-748) (enzyme)", "values": [{"measurement": "binding", "setting": "[7]", "result": "binds"}]}
